The record followed here is paper PMC5996148.

Test systems include AHSG (human); AIF1 (human); AK3 (human); AK3L1 (human); AKR1B10 (human); AKR1C1 (human); AKR1C3 (human); ALAD (human); ALB (human); ALDH3A1 (human); ALDH7A1 (human); ALDOC (human); ALG13 (human); ALG14 (human); ALG2 (human); ALKBH3 (human); ALOX12 (human); ALOX15 (human).
Assay in all cases: protein microarray (ProtoArray v5.0), streptavidin-Alexa Fluor 647
Settings in all cases: 3'-biotin; 20 mM Tris (pH 7.5), 5 mM MgCl2, 100 mM KCl, 0.1% Tween-20, A/T-rich and random oligonucleotide blockers; temperature not stated; high values mean tight binding

Another assay deals with AK2 (UniProt P54819).
Another assay addresses AKT2 (UniProt P31751).

“And” between values parts separate entries of the source, which are not always exact repeats. Equal values may be shown once. Some of the results follow. For some assays here: Construct or isoform of the protein are uncertain.

“GGGAGGCTGAGGCAGG [G4-1 biotinylated (PQS2)]”: the binding signal in the assay on AHSG (human) is -0.349 z-score; with AIF1 (human) it was -0.347 z-score and -0.354 z-score; with AK2, -0.337 z-score; with AK3 (human), -0.339 z-score; in the assay with AK3L1 (human) it was -0.343 z-score; in the assay with AKR1B10 (human) it was -0.337 z-score. In addition, the binding signal with AKR1C1 (human) is -0.347 z-score; in the assay on AKR1C3 (human) it was -0.291 z-score; with AKT2, -0.271 z-score; in the assay on ALAD (human), -0.311 z-score; in the assay with ALB (human), -0.349 z-score and -0.334 z-score; in the assay with ALDH3A1 (human) it was -0.343 z-score. For the same sequence, the binding signal in the assay with ALDH7A1 (human) was -0.314 z-score; with ALDOC (human), -0.328 z-score; with ALG13 (human), -0.352 z-score; with ALG14 (human), -0.321 z-score; with ALG2 (human), -0.23 z-score; in the assay with ALKBH3 (human), -0.329 z-score. For the same sequence, the values for the binding signal in the assay on ALOX12 (human) and in the assay on ALOX15 (human) were -0.333 z-score and -0.345 z-score, respectively.
